Results taken from patent publication US8637321B2, “Lipidomics approaches for central nervous system disorders” (priority 2005, dated 2014).
For at least one compound, name, drawing or mass did not settle the structure.

Experiments:
[1] = test system: patients with schizophrenia; assay: plasma lipid profiling pre- and post-treatment with antipsychotics; assay type: in vivo, human
From the text: Fifty male and female patients were recruited in two studies for metabolic profiling (Table VI and Table VII for demographics). Subjects ranged in age from 18 to 60 years and met the following inclusion criteria: a) DSM-IV criteria for schizophrenia, schizophreniform disorder, or schizoaffective disorder; b) newly hospitalized for a psychotic exacerbation in the setting of no antipsychotic treatment for at least 3 weeks prior to admission; and c) provided signed informed consent. Patients with psychoses due to psychoactive substance abuse or an underlying medical condition were excluded. Patients who were receiving treatment for diabetes mellitus or hyperlipidemia were also excluded.
The choice and dose of antipsychotic medication was based on the doctor's judgment. […] The treatment duration was 2-3 weeks. […] The mean duration of therapy was about 2 weeks for all 3 drugs in Study II. The drug groups were otherwise generally similar in severity of disease and physical characteristics (Table VI and Table VII). The 2-3 week duration permits the study of acute early effects.
All blood samples were drawn from subjects in the early morning after overnight fasting. Blood was drawn into vacutainer tubes containing sodium heparin, immediately placed on ice, and within 10 minutes, the blood was centrifuged and the plasma was transferred into polypropylene tubes and stored in a −30° C. freezer. All baseline samples were drawn prior to starting antipsychotic treatment in the study. If a patient had received a dose of an antipsychotic during the referral process (e.g., because of agitation when initially seen in a local emergency department), drawing of baseline plasma samples was delayed for 2-3 days. Follow-up samples were drawn after patients had received an average of 2-3 weeks of acute antipsychotic treatment.
A comprehensive assessment of plasma lipid profiles was performed (Lipomics Technologies, West Sacramento, Calif.) according to established methods (Watkins, et al. (2002) J. Lipid Res. 43(11):1809-17). Quantitative measurements of fatty acids in various lipid classes were determined as nmol fatty acid/gram of plasma. Lipid classes included cholesterol esters (CE), free cholesterol (FC), triacylglycerols (TG), diacylglycerols (DG), free fatty acids (FA), lysophosphatidylcholine (LY), phosphatidylcholine (PC), and phosphatidylethanolamine (PE). Lipid metabolites are identified by the lipid class and the fatty acid moiety. In the context of this invention, fatty acids are identified first by the number of carbons in the molecule (e.g., 20), the number of double bonds in the molecule (e.g., 4), and lastly the position of the double bonds (e.g., n6). To illustrate, PC20:4n6 denotes a phosphatidylcholine molecule containing a 20 carbon fatty acid with 4 double bonds at the n6 position.
Significant differences between pre- and post-drug treatment were assessed by paired t-tests. Evaluation of response to drug was assessed by two-way ANOVA. All statistics were done using R with the following functions: t.test, anova, prcomp, and g/m (Team RDC (2005) R: A language and environment for statistical computing. R Foundation for Statistical Computing). Before beginning statistical analyses, change detection was used to determine if observed signals were greater than that which could be expected by chance (noise). The chance distribution of p-values was determined by permuting the outcome groupings (Golub, et al. (1999) Science 286(5439):531-7). Briefly, P values for the appropriate comparison were calculated for each metabolite using a Student's t-test. The metabolites were ranked by p value from smallest to largest. The log of the rank versus the log of the p value for each comparison of interest was plotted and is represented by a colored line. The distribution of p values expected by chance at each rank is indicated by the shaded area. […]

[2] = test system: fatty acid elongation and desaturation (delta 5 desaturase, delta 6 desaturase, elongase); assay: pathway analysis: lipid synthesis enzyme activities estimated from fatty acid ratios; assay type: in vivo, human; settings: estimated from 20:4n6/20:3n6 in phosphatidylcholine; FIGS. 5A and 5B
Experimental: Estimates of lipid synthesis enzyme activities were calculated using the precursor to product ratios for each enzyme. The following ratios were used: 18:3n6/18:2n6 for delta 6 desaturase; 20:3n6/18:3n6 for delta 6 elongase; 20:4n6/20:3n6 for delta 5 desaturase; 22:4n6/20:4n6 for elongase; 24:4n6/22:4n6 for elongase; 24:5n6/24:4n6 for delta 6 desaturase. The absolute numbers for each fatty acid metabolite were used for calculating metabolite changes.
To characterize fatty acid elongation and desaturation processes that might be modified in schizophrenia, various ratios of products to substrates in different fatty acid pathways were determined and are summarized in Table VIII.

[3] = Study I, plasma, post-treatment vs pre-treatment
[4] = Study II, plasma, post-treatment vs pre-treatment

Cc1cc2c(s1)Nc1ccccc1N=C2N1CCN(C)CC1 [Olanzapine, olanzapine]
concentration of arachidonic acid, AA (20:4n6) ([1]; Study I, plasma lipid classes, post-treatment vs pre-treatment): only increased in PE
CE concentration [1, 3]: increases
FA (free fatty acid) class concentration [1, 3]: decreases
FC concentration [1, 3]: increases
LY class concentration [1, 3]: no increase
PC class concentration [1, 3]: increases
PE class concentration [1, 3]: increases
TG concentration [1, 3]: increases
concentrations of saturated and monounsaturated fatty acids in TG, PE and PC [1, 3]: increased
immediate precursors and metabolites of arachidonic acid 20:4n6 in TG, CE, PE, and PC [1, 3]: increased
immediate precursors of docosahexaenoic acid (20:5n3 and 22:5n3) [1, 3]: increased
n7 and n9 free fatty acids [1, 3]: increases
CE concentration [1, 4]: increased
FC concentration [1, 4]: increased
PC concentration [1, 4]: increased
PE concentration [1, 4]: increased
TG concentration [1, 4]: increased
concentration of PC20:4n6 (arachidonic acid) [1, 4]: no change
concentration of PE20:4n6 (arachidonic acid) [1, 4]: no change
free fatty acids [1, 4]: decreased significantly
reduction in 18:0 in patients with schizophrenia ([1]; after treatment, FIG. 1): essentially reversed
triacylglycerol and phospholipid content of the plasma ([1]; following treatment): increased
fatty acid synthesis ([1]; inferred from 16:1n7, 18:1n7 and 18:1n9 concentrations): increase
cholesterol ([1]; plasma, with treatment): increased
concentrations of 16:1n7, 18:1n7 and 18:1n9 ([1]; plasma, with treatment): increased
levels of arachidonic and docosahexaenoic acids (20:4n6 and 22:6n3) ([1]; present studies, after treatment): remained essentially the same
apparent delta 5 desaturase activity [2]: decreased
